# The other results are listed elsewhere or left out.
# B1: SP15308B-bot-339-22-339 (Bacteroides ovatus) (protein)
# chain: NEWEDEQYEQYVSFKAPIASGSDGVTTIYVRYKDNGKVTYQLPIIVSGSTVNSQDRDIHIAVDKDTLKTLNIERFSLYRPELWYTEMEEDKYEFPETVHIPAGSCVELLNIDFNLQDIDMLEKWVLPLTIVDDGSYAYQSHPRKNYAKALLKVVPFNNYSGSYTASSMKVYTYINGKPDTNARTTDKRTGYVVDNNSIFFYAGLINEDMDKDMRKKYKINVHFKEDGTLDMKQDDPSNEMEFELIGTPTYSSTSVMDATRPYLERRYVQIMFEYDFQDFTYGGSGTEVIPIKYRVAGSMTLLRNINTQIPDEDQQIEW
# What was measured:
# Assay in all cases: glycan array binding signal (z-score within array); higher = stronger binding
# Conditions in all cases: glycan notation: IUPAC condensed, linker removed
# [1] = molecular target: Fuc(a1-2)Gal(b1-4)GlcNAc(b1-3)Gal(b1-4)GlcNAc(b1-2)Man(a1-3)[Fuc(a1-2)Gal(b1-4)GlcNAc(b1-3)Gal(b1-4)GlcNAc(b1-2)Man(a1-6)]Man(b1-4)GlcNAc(b1-4)GlcNAc
# Method in brief: (§1)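 The binding signal is a Z-score computed within each array. Data were drawn from 3228 arrays in the Consortium for Functional Glycomics database, restricted to those with a known protein sequence. Scores were averaged over arrays of the same protein sequence at different concentrations or buffers, and over linkers, and negative values can be taken as non-binding.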
# [2] = molecular target: Fuc(a1-2)Gal(b1-4)GlcNAc(b1-3)Gal(b1-4)GlcNAc(b1-3)Gal(b1-4)GlcNAc
# Method in brief: as §1
# [3] = molecular target: Fuc(a1-2)Gal(b1-4)GlcNAc(b1-3)GalNAc
# Method in brief: as §1
# [4] = molecular target: Fuc(a1-2)Gal(b1-4)GlcNAc(b1-3)[Fuc(a1-2)Gal(b1-4)GlcNAc(b1-6)]GalNAc
# Method in brief: as §1
# [5] = molecular target: Fuc(a1-2)Gal(b1-4)GlcNAc(b1-3)[Fuc(a1-3)[Gal(b1-4)]GlcNAc(b1-6)]Gal(b1-4)Glc
# Method in brief: as §1
# [6] = molecular target: Fuc(a1-2)Gal(b1-4)GlcNAc(b1-6)GalNAc
# Method in brief: as §1
# [7] = molecular target: Fuc(a1-2)Gal(b1-4)GlcNAc6S
# Method in brief: as §1
# [8] = molecular target: Fuc(a1-2)Gal(b1-4)[Fuc(a1-3)]GlcNAc
# Method in brief: as §1
# [9] = molecular target: Fuc(a1-2)Gal(b1-4)[Fuc(a1-3)]GlcNAc(b1-2)Man(a1-3)[Fuc(a1-2)Gal(b1-4)[Fuc(a1-3)]GlcNAc(b1-2)Man(a1-6)]Man(b1-4)GlcNAc(b1-4)[Fuc(a1-6)]GlcNAc
# Method in brief: as §1
# [10] = molecular target: Fuc(a1-2)Gal(b1-4)[Fuc(a1-3)]GlcNAc(b1-2)[Fuc(a1-2)Gal(b1-4)[Fuc(a1-3)]GlcNAc(b1-4)]Man(a1-3)[Fuc(a1-2)Gal(b1-4)[Fuc(a1-3)]GlcNAc(b1-2)Man(a1-6)]Man(b1-4)GlcNAc(b1-4)GlcNAc
# Method in brief: as §1
# [11] = molecular target: Fuc(a1-2)Gal(b1-4)[Fuc(a1-3)]GlcNAc(b1-3)Gal(b1-4)[Fuc(a1-3)]GlcNAc
# Method in brief: as §1
# [12] = molecular target: Fuc(a1-2)Gal(b1-4)[Fuc(a1-3)]GlcNAc(b1-3)Gal(b1-4)[Fuc(a1-3)]GlcNAc(b1-3)Gal(b1-4)[Fuc(a1-3)]GlcNAc
# Method in brief: as §1
# [13] = molecular target: Fuc(a1-2)Gal(b1-4)[Fuc(a1-3)]GlcNAc(b1-3)GalNAc
# Method in brief: as §1
# [14] = molecular target: Fuc(a1-2)Gal(b1-4)[Fuc(a1-3)]GlcNAc(b1-3)[Neu5Ac(a2-6)Gal(b1-4)GlcNAc(b1-6)]Gal(b1-4)Glc
# Method in brief: as §1
# [15] = molecular target: Fuc(a1-2)Gal3S(b1-4)GlcNAc
# Method in brief: as §1
# [16] = molecular target: Fuc(a1-2)Gal6S(b1-3)GlcNAc
# Method in brief: as §1
# [17] = molecular target: Fuc(a1-2)Gal6S(b1-3)GlcNAc6S
# Method in brief: as §1
# Fuc(a1-2)Gal6S(b1-4)Glc = molecular target: Fuc(a1-2)Gal6S(b1-4)Glc
# Method in brief: as §1
# [18] = molecular target: Fuc(a1-2)Gal6S(b1-4)Glc6S
# Method in brief: as §1
# Fuc(a1-2)[Gal(a1-3)]Gal = molecular target: Fuc(a1-2)[Gal(a1-3)]Gal
# Method in brief: as §1
# [19] = molecular target: Fuc(a1-2)[Gal(a1-3)]Gal(b1-3)GalNAc
# Method in brief: as §1
# [20] = molecular target: Fuc(a1-2)[Gal(a1-3)]Gal(b1-3)GalNAc(b1-3)Gal(a1-4)Gal(b1-4)Glc
# Method in brief: as §1
# [21] = molecular target: Fuc(a1-2)[Gal(a1-3)]Gal(b1-3)GlcNAc
# Method in brief: as §1
# [22] = molecular target: Fuc(a1-2)[Gal(a1-3)]Gal(b1-3)GlcNAc(b1-2)Man(a1-3)[Fuc(a1-2)[Gal(a1-3)]Gal(b1-3)GlcNAc(b1-2)Man(a1-6)]Man(b1-4)GlcNAc(b1-4)GlcNAc
# Method in brief: as §1
# [23] = molecular target: Fuc(a1-2)[Gal(a1-3)]Gal(b1-3)GlcNAc(b1-2)Man(a1-3)[Fuc(a1-2)[Gal(a1-3)]Gal(b1-3)GlcNAc(b1-2)Man(a1-6)]Man(b1-4)GlcNAc(b1-4)[Fuc(a1-6)]GlcNAc
# Method in brief: as §1
# [24] = molecular target: Fuc(a1-2)[Gal(a1-3)]Gal(b1-3)GlcNAc(b1-3)GalNAc
# Method in brief: as §1
# [25] = molecular target: Fuc(a1-2)[Gal(a1-3)]Gal(b1-3)GlcNAc(b1-6)GalNAc
# Method in brief: as §1
# [26] = molecular target: Fuc(a1-2)[Gal(a1-3)]Gal(b1-4)Glc
# Method in brief: as §1
# [27] = molecular target: Fuc(a1-2)[Gal(a1-3)]Gal(b1-4)GlcNAc
# Method in brief: as §1
# [28] = molecular target: Fuc(a1-2)[Gal(a1-3)]Gal(b1-4)GlcNAc(b1-2)Man
# Method in brief: as §1
binder,measurement,setting,value
B1,glycan array binding signal (z-score),[1],0.402
same,glycan array binding signal (z-score),[2],-0.277
same,glycan array binding signal (z-score),[3],0.517
same,glycan array binding signal (z-score),[4],-0.247
same,glycan array binding signal (z-score),[5],-0.185
same,glycan array binding signal (z-score),[6],0.515
same,glycan array binding signal (z-score),[7],-0.184
same,glycan array binding signal (z-score),[8],0.461
same,glycan array binding signal (z-score),[9],0.719
same,glycan array binding signal (z-score),[10],0.54
same,glycan array binding signal (z-score),[11],-0.601
same,glycan array binding signal (z-score),[12],0.168
same,glycan array binding signal (z-score),[13],0.83
same,glycan array binding signal (z-score),[14],-0.147
same,glycan array binding signal (z-score),[15],-0.404
same,glycan array binding signal (z-score),[16],-0.658
same,glycan array binding signal (z-score),[17],0.853
same,glycan array binding signal (z-score),Fuc(a1-2)Gal6S(b1-4)Glc,0.252
same,glycan array binding signal (z-score),[18],-0.011
same,glycan array binding signal (z-score),Fuc(a1-2)[Gal(a1-3)]Gal,-0.108
same,glycan array binding signal (z-score),[19],-0.374
same,glycan array binding signal (z-score),[20],-0.087
same,glycan array binding signal (z-score),[21],-0.205
same,glycan array binding signal (z-score),[22],0.038
same,glycan array binding signal (z-score),[23],-0.387
same,glycan array binding signal (z-score),[24],-0.829
same,glycan array binding signal (z-score),[25],-0.081
same,glycan array binding signal (z-score),[26],-0.6
same,glycan array binding signal (z-score),[27],-0.255
same,glycan array binding signal (z-score),[28],0.303

# Pulled one by one from above:
binder,measurement,setting,value
B1,glycan array binding signal (z-score),[9],0.719
same,glycan array binding signal (z-score),[3],0.517

# Reference: the supplement of paper PMC8728848
